This note sets out measurements from paper doi:10.1101/2023.05.26.542350.

The chains behind the UniProt entries cited, without tags or fusion partners. Where a name states a change or a piece, a line headed by the entry shows the natural chain unless it says otherwise.
UniProt Q8IZP0: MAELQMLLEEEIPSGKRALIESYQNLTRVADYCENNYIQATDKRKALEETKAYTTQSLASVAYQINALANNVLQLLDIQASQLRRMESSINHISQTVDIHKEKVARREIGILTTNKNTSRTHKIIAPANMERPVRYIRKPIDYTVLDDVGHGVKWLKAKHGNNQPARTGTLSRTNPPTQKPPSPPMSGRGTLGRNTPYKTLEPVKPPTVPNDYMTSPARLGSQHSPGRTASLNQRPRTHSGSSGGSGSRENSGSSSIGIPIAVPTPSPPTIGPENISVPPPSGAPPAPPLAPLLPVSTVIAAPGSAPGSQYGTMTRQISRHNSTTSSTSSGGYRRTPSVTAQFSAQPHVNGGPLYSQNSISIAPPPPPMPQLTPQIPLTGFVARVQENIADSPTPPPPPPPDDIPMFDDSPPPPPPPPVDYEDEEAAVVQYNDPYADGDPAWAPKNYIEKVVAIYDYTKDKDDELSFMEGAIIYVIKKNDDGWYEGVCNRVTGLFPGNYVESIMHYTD

For some assays here: The comparison behind a weaker result is the experiment's own reference, which may not be listed here. For some assays here: Construct, isoform or probe ends are uncertain for at least one entry. For some assays here: At least one verdict rests on a figure or table, not on a statement of the authors.

Data set [1] has as its system ABI1 full-length. Put plainly: fluorescence quenching or polarization. To be noted: low micromolar, similar to HHR.
Data set [2] concerns the target ABI1-HHR-DelEx4 del155-159 (UniProt Q8IZP0). Put plainly: NMR. To be noted: 15N-1H HSQC titration, 80 uM protein, up to 7.5 eq DNA, 20 C; residues 93-170.
Data set [3] shares this target. Briefly: fluorescence quenching or polarization. To be noted: Kd shown only in figure; residues 93-170.

As to “GTCTGACTCGTCCTC (double strand) [L3MBTL2]”, the binding result in data set [1] was “binds”.

Turning to “CCCGAACTGTGCGGT (double strand) [EP300-AS1]”, in data set [1], the binding result was “binds”.

Regarding “GCGTCGTTAGGGCCC (double strand) [MIR1289-1]”, in data set [1], the binding result is on record as “binds”.

For the sequence “GTGGTGGCTCTGAAAC (double strand) [BATF3]”, the binding result in data set [1] was “binds”.

With ACACTAATTGCAGGC (double strand) [HOXB4], the results for the binding result in data set [2], in data set [1] and in data set [3] were “binds more weakly”, “binds” and “binds more weakly”, respectively.

Regarding “AGGCGCCGGCGTGTCA (double strand) [C1orf106]”, the binding result in data set [1] is reported as “binds”.
